Results are given in words; binding and its absence hold for the method and conditions named. In cells and extracts the contact can be indirect. A result given as binding can be weak or reduced; the word gives no strength.
Molecular target: EIN2 (endogenous, Arabidopsis seedlings) (Arabidopsis thaliana (endogenous in seedlings)) (UniProt Q9S814)
Assay: co-IP

Sequences of proteins named here, by UniProt entry; tags and fusion partners are left off. A change or cut given only in a name is not applied to a line headed by its entry.
UniProt Q9S814: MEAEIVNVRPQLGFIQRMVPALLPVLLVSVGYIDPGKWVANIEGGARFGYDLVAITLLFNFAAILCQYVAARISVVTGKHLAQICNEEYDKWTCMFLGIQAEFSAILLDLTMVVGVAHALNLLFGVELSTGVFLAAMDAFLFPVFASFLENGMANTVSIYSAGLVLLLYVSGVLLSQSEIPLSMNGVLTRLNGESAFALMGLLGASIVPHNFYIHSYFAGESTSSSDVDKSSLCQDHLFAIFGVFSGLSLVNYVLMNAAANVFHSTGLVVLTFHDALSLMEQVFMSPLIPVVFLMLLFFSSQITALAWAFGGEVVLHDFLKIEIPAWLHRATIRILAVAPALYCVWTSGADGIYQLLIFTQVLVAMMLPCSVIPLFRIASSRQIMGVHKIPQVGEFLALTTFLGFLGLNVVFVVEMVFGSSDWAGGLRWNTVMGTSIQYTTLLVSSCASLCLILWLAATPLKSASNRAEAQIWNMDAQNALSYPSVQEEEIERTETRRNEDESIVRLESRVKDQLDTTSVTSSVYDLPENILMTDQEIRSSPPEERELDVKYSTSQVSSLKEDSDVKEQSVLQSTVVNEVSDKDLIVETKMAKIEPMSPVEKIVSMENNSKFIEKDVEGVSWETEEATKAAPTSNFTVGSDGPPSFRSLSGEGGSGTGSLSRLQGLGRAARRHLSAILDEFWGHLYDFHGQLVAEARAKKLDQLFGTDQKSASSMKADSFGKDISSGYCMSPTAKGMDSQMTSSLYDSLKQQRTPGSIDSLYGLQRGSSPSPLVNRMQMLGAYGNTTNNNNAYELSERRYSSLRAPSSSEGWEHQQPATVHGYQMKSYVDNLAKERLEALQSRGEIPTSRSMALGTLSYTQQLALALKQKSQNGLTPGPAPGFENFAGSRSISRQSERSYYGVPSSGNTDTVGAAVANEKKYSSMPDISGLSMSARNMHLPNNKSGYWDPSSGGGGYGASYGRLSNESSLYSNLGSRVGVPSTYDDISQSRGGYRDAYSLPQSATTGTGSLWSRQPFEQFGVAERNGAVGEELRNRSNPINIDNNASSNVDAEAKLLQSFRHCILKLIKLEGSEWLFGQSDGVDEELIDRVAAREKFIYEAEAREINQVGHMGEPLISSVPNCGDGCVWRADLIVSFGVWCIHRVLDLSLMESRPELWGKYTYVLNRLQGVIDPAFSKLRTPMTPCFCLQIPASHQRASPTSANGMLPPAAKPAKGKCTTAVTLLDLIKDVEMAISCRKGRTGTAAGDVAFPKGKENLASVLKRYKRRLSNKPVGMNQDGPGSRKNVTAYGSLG
UniProt Q6PUA2: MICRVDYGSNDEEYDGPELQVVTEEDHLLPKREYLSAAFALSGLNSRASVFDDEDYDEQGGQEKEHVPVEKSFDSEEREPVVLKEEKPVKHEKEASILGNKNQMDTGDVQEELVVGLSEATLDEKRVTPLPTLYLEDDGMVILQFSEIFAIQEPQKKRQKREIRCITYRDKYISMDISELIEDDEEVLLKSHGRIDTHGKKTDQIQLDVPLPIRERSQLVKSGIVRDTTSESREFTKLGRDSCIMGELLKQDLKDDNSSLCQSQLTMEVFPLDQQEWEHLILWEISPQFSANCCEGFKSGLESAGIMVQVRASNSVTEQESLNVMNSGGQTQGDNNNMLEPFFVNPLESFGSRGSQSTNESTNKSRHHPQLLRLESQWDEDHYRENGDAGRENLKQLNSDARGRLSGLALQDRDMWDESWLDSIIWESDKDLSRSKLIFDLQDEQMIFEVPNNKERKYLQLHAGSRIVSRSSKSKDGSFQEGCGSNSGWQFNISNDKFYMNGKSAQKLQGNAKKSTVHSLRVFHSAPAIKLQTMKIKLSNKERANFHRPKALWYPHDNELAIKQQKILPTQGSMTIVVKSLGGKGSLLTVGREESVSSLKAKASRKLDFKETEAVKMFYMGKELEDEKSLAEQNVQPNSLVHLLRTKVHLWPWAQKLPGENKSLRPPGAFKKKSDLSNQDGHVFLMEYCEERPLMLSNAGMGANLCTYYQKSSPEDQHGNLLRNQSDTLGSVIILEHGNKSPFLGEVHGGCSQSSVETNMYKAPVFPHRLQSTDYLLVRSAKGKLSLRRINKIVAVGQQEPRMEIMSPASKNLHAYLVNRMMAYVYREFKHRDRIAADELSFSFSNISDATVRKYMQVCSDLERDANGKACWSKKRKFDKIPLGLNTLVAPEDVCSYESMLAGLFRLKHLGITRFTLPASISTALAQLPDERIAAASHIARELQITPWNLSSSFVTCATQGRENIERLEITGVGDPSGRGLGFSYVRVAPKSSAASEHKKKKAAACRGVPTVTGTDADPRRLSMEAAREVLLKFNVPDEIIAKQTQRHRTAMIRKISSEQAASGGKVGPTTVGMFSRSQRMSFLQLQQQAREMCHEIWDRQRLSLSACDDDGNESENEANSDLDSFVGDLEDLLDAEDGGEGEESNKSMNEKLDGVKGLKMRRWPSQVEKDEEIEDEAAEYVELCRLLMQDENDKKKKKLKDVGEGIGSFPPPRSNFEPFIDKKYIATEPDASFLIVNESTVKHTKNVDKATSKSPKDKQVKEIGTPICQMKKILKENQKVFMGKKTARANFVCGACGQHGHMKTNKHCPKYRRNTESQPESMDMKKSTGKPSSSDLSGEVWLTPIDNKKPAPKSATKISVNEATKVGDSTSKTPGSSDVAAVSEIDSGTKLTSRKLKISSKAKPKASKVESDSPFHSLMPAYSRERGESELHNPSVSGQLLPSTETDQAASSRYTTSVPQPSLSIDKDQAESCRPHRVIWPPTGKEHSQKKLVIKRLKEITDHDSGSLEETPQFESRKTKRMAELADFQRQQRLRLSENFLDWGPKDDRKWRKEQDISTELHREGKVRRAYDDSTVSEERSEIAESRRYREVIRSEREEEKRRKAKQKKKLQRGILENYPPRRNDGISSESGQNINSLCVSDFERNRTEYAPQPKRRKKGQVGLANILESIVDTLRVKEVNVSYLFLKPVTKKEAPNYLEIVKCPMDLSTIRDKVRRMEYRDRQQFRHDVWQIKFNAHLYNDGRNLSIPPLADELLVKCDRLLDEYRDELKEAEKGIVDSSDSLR

- binding: binds
Substance: HAF2-GFP (full length HAF2 in transgenic Arabidopsis) (from UniProt Q6PUA2 1-1786)

Reference: article doi:10.1101/2023.12.31.573642
